Measurements taken from publication PMC6826853.
Results are given in words; binding and its absence hold for the method and conditions named. For some of these results: Binding seen in cells or lysates may run through a third protein. Some entries that bind do so weakly or less than the wild type.

Chains of the proteins cited; added tags and fusions are not shown.
UniProt O60674: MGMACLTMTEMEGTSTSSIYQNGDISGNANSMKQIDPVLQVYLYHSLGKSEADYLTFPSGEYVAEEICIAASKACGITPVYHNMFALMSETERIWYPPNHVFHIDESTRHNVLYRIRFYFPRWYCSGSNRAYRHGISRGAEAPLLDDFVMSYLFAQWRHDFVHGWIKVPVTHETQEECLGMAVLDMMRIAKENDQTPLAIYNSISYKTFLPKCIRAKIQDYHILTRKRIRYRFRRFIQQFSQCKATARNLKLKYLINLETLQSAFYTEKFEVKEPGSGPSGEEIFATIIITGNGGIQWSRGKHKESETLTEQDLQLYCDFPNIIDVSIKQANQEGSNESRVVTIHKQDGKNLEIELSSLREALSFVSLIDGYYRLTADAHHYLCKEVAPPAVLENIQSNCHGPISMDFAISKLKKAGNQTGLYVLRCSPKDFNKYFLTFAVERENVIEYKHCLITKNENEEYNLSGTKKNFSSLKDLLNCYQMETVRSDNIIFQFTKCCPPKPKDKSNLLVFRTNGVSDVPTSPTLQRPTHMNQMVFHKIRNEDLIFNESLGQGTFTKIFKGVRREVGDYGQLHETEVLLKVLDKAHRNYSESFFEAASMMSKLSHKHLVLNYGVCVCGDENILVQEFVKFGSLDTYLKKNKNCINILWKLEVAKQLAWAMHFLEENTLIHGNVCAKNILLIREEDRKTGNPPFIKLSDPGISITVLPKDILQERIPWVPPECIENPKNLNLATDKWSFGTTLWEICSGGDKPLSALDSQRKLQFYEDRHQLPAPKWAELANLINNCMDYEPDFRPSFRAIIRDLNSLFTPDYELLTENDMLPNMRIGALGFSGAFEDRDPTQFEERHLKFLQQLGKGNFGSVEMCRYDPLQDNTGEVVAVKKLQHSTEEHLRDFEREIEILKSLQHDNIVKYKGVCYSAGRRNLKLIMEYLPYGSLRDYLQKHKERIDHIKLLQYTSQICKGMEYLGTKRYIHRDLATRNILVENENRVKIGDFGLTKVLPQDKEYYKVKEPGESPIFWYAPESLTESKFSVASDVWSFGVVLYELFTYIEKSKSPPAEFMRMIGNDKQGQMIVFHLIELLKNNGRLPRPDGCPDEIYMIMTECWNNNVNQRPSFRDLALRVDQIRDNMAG
UniProt P40763: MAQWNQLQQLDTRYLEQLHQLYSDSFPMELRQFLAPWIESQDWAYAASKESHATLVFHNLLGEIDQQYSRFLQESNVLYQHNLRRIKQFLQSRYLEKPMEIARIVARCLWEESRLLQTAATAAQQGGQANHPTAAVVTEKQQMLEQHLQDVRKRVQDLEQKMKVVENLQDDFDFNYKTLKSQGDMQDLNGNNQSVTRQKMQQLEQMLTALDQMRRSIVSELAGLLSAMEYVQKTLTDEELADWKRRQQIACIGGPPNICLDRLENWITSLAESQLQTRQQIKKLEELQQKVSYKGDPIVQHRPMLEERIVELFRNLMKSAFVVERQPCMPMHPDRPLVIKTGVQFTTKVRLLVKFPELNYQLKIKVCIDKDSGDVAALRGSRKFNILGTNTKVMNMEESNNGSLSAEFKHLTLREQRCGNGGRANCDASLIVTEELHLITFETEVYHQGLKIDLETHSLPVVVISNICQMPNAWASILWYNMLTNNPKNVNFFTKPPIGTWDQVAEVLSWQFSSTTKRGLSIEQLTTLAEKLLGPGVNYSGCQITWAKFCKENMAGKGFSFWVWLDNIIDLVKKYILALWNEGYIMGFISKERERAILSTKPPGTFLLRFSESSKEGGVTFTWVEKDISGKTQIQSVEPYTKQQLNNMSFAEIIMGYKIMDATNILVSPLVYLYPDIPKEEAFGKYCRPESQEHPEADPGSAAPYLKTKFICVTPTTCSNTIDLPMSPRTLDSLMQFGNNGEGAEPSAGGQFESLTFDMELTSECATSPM
UniProt Q13153: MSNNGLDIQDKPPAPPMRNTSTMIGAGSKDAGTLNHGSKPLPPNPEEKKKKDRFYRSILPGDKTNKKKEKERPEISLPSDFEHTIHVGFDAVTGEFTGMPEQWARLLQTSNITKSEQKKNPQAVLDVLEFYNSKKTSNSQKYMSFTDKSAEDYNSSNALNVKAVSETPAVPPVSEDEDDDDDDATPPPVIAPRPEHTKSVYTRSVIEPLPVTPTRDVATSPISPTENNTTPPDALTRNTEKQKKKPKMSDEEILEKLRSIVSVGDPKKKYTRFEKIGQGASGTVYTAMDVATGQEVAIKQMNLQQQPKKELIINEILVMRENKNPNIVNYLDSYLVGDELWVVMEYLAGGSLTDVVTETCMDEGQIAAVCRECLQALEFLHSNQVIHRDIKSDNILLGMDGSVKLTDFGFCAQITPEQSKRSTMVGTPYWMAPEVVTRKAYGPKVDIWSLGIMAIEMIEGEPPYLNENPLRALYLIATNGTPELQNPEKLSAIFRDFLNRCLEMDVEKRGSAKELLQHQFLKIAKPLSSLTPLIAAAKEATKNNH

What was measured:
[1] = target: Janus Kinase 2 (JAK2) (human (endogenous in breast cancer cells)) (UniProt O60674); experiment: co-IP; endogenous proteins; total protein from breast cancer cells immunoprecipitated with anti-PAK1, anti-JAK2 or anti-Stat3 antibodies, then western blotting
[2] = target: signal transducer and activator of transcription 3 (Stat3) (human (endogenous in breast cancer cells)) (UniProt P40763); experiment: as above
[3] = target: signal transducer and activator of transcription 3 (Stat3) (human (endogenous in breast cancer cells)) (UniProt P40763); experiment: native gel or EMSA; supershift: mammosphere nuclear proteins incubated with PAK1 and pStat3 antibodies for 30 min before adding IRDye 800 Stat3 oligonucleotide, room temperature, nondenaturing 6% PAGE
[4] = target: signal transducer and activator of transcription 3 (Stat3) (human (endogenous in breast cancer cells)) (UniProt P40763); experiment: Re-ChIP (double chromatin immunoprecipitation); breast cancer cells fixed with 1% formaldehyde, sonicated; first ChIP with anti-pStat3/Stat3 or anti-PAK1 antibody, second ChIP with the other antibody; PCR of the IL-6 promoter region

Measured: binding

p21-activated kinase (PAK1) (from UniProt Q13153 1-545)
binds: all assays above
